PubChem BioAssay AID1224831 – NIAID, 2016

Purpose: 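Retesting screen hits on the TLR4-driven TNF response with six separate siRNAs each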 (follow-up of hits)
Cells: human THP-1 B5 monocytic leukaemia cells carrying a TNF promoter luciferase reporter, made macrophage-like with PMA
Reagents: single siRNA against human genes, 50 nM
Timing: about 68 h of knock-down, then 4 h LPS
Challenge: LPS (Salmonella minnesota, TLR-grade) at 10 ng/ml for 4 h; PMA 5 ng/ml present during knock-down
Measured: 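Firefly to renilla luciferase ratio of a TNF promoter reporter after 4 h LPS, scaled to plate median, turned into robust z-score, averaged over replicates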
Reading the numbers: TNF reporter z-score: higher = stronger LPS-induced TNF reporter signal; z-score, median over gene's siRNAs: higher = stronger TNF reporter signal across the gene's siRNAs
Active means: 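Active when the replicate mean z-score is about -1 or lower, or about 1.5 or higher; lowered and raised TNF reporter signal both count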
Calls: active = changed TNF reporter (either direction); inactive = little change
This is one part, drawn at random, of about 3,500 deposited reagents. 731 of all reagents (21%) count as active. 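Active means either lowered or raised reporter signal; the gene-median score did not drive the per-siRNA calls.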 A number with no mark means an inactive call. The numbers tell different reagents against one gene apart. No sequences are given here.

Target gene	reagent no.	TNF reporter z-score, replicate mean	z-score, median over gene's siRNAs
LOXL2 (lysyl oxidase like 2)	1	0.36	0.26
LOXL2 (lysyl oxidase like 2)	2	0.16	0.26
LOXL2 (lysyl oxidase like 2)	3	-0.23	0.26
LOXL2 (lysyl oxidase like 2)	4	-0.52	0.26
LOXL2 (lysyl oxidase like 2)	5	0.56	0.26
LOXL2 (lysyl oxidase like 2)	6	0.53	0.26
PCDHA13 (protocadherin alpha 13)	1	0.5	0.34
PCDHA13 (protocadherin alpha 13)	2	0.62	0.34
PCDHA13 (protocadherin alpha 13)	3	0.18	0.34
PCDHA13 (protocadherin alpha 13)	4	-0.89	0.34
PCDHA13 (protocadherin alpha 13)	5	0.58	0.34
PCDHA13 (protocadherin alpha 13)	6	-0.11	0.34
PCDHA4 (protocadherin alpha 4)	1	0.72	0.145
PCDHA4 (protocadherin alpha 4)	2	0.48	0.145
PCDHA4 (protocadherin alpha 4)	3	-0.43	0.145
PCDHA4 (protocadherin alpha 4)	4	0.33	0.145
PCDHA4 (protocadherin alpha 4)	5	-0.04	0.145
PCDHA4 (protocadherin alpha 4)	6	-1.52 (active)	0.145
CCDC85B (coiled-coil domain containing 85B)	1	-0.52	-0.205
CCDC85B (coiled-coil domain containing 85B)	2	-0.91	-0.205
CCDC85B (coiled-coil domain containing 85B)	3	-0.1	-0.205
CCDC85B (coiled-coil domain containing 85B)	4	-0.23	-0.205
CCDC85B (coiled-coil domain containing 85B)	5	-0.18	-0.205
CCDC85B (coiled-coil domain containing 85B)	6	3.35 (active)	-0.205
RAPGEF5 (Rap guanine nucleotide exchange factor 5)	1	-1.1 (active)	-0.35
RAPGEF5 (Rap guanine nucleotide exchange factor 5)	2	-0.63	-0.35
RAPGEF5 (Rap guanine nucleotide exchange factor 5)	3	-1.48 (active)	-0.35
RAPGEF5 (Rap guanine nucleotide exchange factor 5)	4	-0.07	-0.35
RAPGEF5 (Rap guanine nucleotide exchange factor 5)	5	0.02	-0.35
RAPGEF5 (Rap guanine nucleotide exchange factor 5)	6	0.46	-0.35
ADPRHL1 (ADP-ribosylhydrolase like 1)	1	0.79	-0.62
ADPRHL1 (ADP-ribosylhydrolase like 1)	2	-0.39	-0.62
ADPRHL1 (ADP-ribosylhydrolase like 1)	3	-0.86	-0.62
ADPRHL1 (ADP-ribosylhydrolase like 1)	4	-0.19	-0.62
ADPRHL1 (ADP-ribosylhydrolase like 1)	5	-0.85	-0.62
ADPRHL1 (ADP-ribosylhydrolase like 1)	6	-1.2 (active)	-0.62
OR14I1 (olfactory receptor family 14 subfamily I member 1)	1	0.18	0.5
OR14I1 (olfactory receptor family 14 subfamily I member 1)	2	1.1	0.5
OR14I1 (olfactory receptor family 14 subfamily I member 1)	3	-0.15	0.5
OR14I1 (olfactory receptor family 14 subfamily I member 1)	4	0.11	0.5
OR14I1 (olfactory receptor family 14 subfamily I member 1)	5	1.01	0.5
OR14I1 (olfactory receptor family 14 subfamily I member 1)	6	0.82	0.5
RELT (RELT TNF receptor)	1	1.59 (active)	-0.14
RELT (RELT TNF receptor)	2	0.15	-0.14
RELT (RELT TNF receptor)	3	-0.43	-0.14
RELT (RELT TNF receptor)	4	-1.07 (active)	-0.14
RELT (RELT TNF receptor)	5	-0.76	-0.14
RELT (RELT TNF receptor)	6	0.18	-0.14
OR4D2 (olfactory receptor family 4 subfamily D member 2)	1	0.62	0.435
OR4D2 (olfactory receptor family 4 subfamily D member 2)	2	-0.4	0.435
OR4D2 (olfactory receptor family 4 subfamily D member 2)	3	1.52 (active)	0.435
OR4D2 (olfactory receptor family 4 subfamily D member 2)	4	-0.23	0.435
OR4D2 (olfactory receptor family 4 subfamily D member 2)	5	0.25	0.435
OR4D2 (olfactory receptor family 4 subfamily D member 2)	6	2.62 (active)	0.435
SPOP (speckle type BTB/POZ protein)	1	0.74	0.505
SPOP (speckle type BTB/POZ protein)	2	0.35	0.505
SPOP (speckle type BTB/POZ protein)	3	-0.31	0.505
SPOP (speckle type BTB/POZ protein)	4	0.66	0.505
SPOP (speckle type BTB/POZ protein)	5	-0.6	0.505
SPOP (speckle type BTB/POZ protein)	6	1.05	0.505
CHEK1 (checkpoint kinase 1)	1	0.52	1.32
CHEK1 (checkpoint kinase 1)	2	1.31	1.32
CHEK1 (checkpoint kinase 1)	3	1.34	1.32
CHEK1 (checkpoint kinase 1)	4	-0.35	1.32
CHEK1 (checkpoint kinase 1)	5	3.31 (active)	1.32
CHEK1 (checkpoint kinase 1)	6	2.67 (active)	1.32
ZNF444 (zinc finger protein 444)	1	-0.65	-0.61
ZNF444 (zinc finger protein 444)	2	0.98	-0.61
ZNF444 (zinc finger protein 444)	3	-1.1 (active)	-0.61
ZNF444 (zinc finger protein 444)	4	0.22	-0.61
ZNF444 (zinc finger protein 444)	5	-1.11 (active)	-0.61
ZNF444 (zinc finger protein 444)	6	-0.57	-0.61
SNX9 (sorting nexin 9)	1	0.07	-0.425
SNX9 (sorting nexin 9)	2	-0.44	-0.425
SNX9 (sorting nexin 9)	3	-1.39 (active)	-0.425
SNX9 (sorting nexin 9)	4	-0.41	-0.425
SNX9 (sorting nexin 9)	5	-0.74	-0.425
SNX9 (sorting nexin 9)	6	0.71	-0.425
PLXNA1 (plexin A1)	1	-1.25 (active)	-0.37
PLXNA1 (plexin A1)	2	0.33	-0.37
PLXNA1 (plexin A1)	3	-0.87	-0.37
PLXNA1 (plexin A1)	4	-0.37	-0.37
PLXNA1 (plexin A1)	5	-0.37	-0.37
PLXNA1 (plexin A1)	6	1.47	-0.37
